Source: PubChem BioAssay AID1259266 (Sanger Institute, 2017)
The whole screen tested 794 reagents; below is an unselected part. 16 of them (2%) count as active. 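Calls reflect knock-down alone, not drug synergy; viability seems capped at 1 and z-scores at 0.585.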 Not all columns of the deposit are shown. Not given: the amount of reagent, the time to read-out.

- Purpose: 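Search kinases and colorectal cancer genes for essential genes and drug synergy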 (primary screen)
- System: LS123 human colorectal cancer cells
- Reagents: siRNA pool against human genes
- Challenge: anchor drugs BYL719 (1 µM), cetuximab (5 µg/ml) or trametinib (10 nM), each chosen to barely slow growth alone; DMSO vehicle as the drug-free arm
- Measurement: 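Replicate-averaged viability scaled to non-targeting pools, robust z-score for siRNA alone, and a synergy score per anchor drug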
- Reading the numbers: robust z-score, knock-down alone: higher = more cells surviving after knock-down; viability, knock-down alone: higher = more viable cells
- Hit rule: 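Essential when the robust z-score of the knock-down alone is below -3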
- Meaning of the calls: active = essential (knock-down alone cuts viability); inactive = no change

Target gene,"robust z-score, knock-down alone","viability, knock-down alone (fraction of control)",outcome
PRKCA,0.282,0.982,inactive
ERBB2,0.585,1,inactive
RYK,0.585,1,inactive
AKAP9,-0.812,0.917,inactive
EPHB4,0.585,1,inactive
RBM10,-0.342,0.945,inactive
AGK,0.585,1,inactive
DCLK3,0.585,1,inactive
BCR,0.585,1,inactive
EPHA5,0.585,1,inactive
CDC7,0.585,1,inactive
OBSCN,0.347,0.986,inactive
STK32B,0.585,1,inactive
PANK3,0.585,1,inactive
PTEN,0.135,0.973,inactive
CSNK1E,-1.8,0.858,inactive
SMG1,0.399,0.989,inactive
PACSIN1,0.0487,0.968,inactive
FXR1,0.585,1,inactive
RET,0.585,1,inactive
RPS6KB2,0.456,0.992,inactive
FGFR1,0.585,1,inactive
PASK,0.585,1,inactive
LRRK1,0.585,1,inactive
WNK3,0.585,1,inactive
CALM2,-0.645,0.927,inactive
PIK3CD,0.585,1,inactive
CAMKV,-0.405,0.941,inactive
ALPK1,0.585,1,inactive
SRMS,-1.64,0.868,inactive
CDK18,-2.04,0.844,inactive
MAP3K19,-1.96,0.849,inactive
VRK2,-1.13,0.898,inactive
NUP98,-0.653,0.926,inactive

Ordered by “robust z-score, knock-down alone” (lowest first): 2 of the entries above.
Target gene,"robust z-score, knock-down alone","viability, knock-down alone (fraction of control)",outcome
PACSIN1,0.0487,0.968,inactive
FXR1,0.585,1,inactive
